Measurements as given in paper PMC9682468.
Changes are numbered by the printed parent chain. No constants are given. Whether binding was seen depends on the method and setting. Binding seen in cells or lysates may run through a third protein. Some entries that bind do so weakly or less than the wild type. Sequences can lack the tags named with a protein.

Amino acid sequences for entries named in this document (tags omitted).
UniProt Q64310: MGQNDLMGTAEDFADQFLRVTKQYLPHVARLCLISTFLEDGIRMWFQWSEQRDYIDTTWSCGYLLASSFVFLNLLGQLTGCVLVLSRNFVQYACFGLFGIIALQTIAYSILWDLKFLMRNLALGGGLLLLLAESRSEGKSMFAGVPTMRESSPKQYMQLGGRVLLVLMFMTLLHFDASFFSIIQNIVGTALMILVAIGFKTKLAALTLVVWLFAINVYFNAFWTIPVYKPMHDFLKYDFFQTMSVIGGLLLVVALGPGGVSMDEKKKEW

Tests used:
Experiment in all cases: co-IP; HEK293T cells transfected with the tagged constructs, no cGAMP stimulation; FLAG-STING precipitated with anti-DYKDDDDK (FLAG) beads, 1 h or overnight at 4°C; 50 mM HEPES-NaOH pH 7.2, 150 mM NaCl, 5 mM EDTA, 1% Triton X-100 or 1% CHAPS; western blot
[1] = target: T1, mouse STING (SAVI) N153S, EGFP-tagged and FLAG-tagged copies, in HEK293T cells (mouse) (UniProt Q3TBT3)
T1 sequence: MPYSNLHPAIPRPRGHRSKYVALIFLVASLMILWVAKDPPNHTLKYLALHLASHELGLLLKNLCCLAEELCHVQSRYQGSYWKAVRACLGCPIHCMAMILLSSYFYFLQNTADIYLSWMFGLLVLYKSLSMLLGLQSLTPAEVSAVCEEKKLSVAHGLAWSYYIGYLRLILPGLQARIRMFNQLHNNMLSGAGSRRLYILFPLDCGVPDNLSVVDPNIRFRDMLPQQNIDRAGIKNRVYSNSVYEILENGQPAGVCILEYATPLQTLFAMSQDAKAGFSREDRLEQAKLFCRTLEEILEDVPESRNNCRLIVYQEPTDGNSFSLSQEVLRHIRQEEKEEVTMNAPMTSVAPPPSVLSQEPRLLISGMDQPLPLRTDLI

[2] = target: T2, mouse STING (SAVI) V154M, EGFP-tagged and FLAG-tagged copies, in HEK293T cells (mouse) (UniProt Q3TBT3)
T2 sequence: T1 sequence with S153N, V154M

[3] = target: T3, mouse STING (WT), FLAG-tagged and EGFP-tagged copies, in HEK293T cells (mouse) (UniProt Q3TBT3)
T3 sequence: T1 sequence with S153N

[4] = target: T4, mouse STING (SAVI) V146L, EGFP-tagged and FLAG-tagged copies, in HEK293T cells (mouse) (UniProt Q3TBT3)
T4 sequence: T1 sequence with V146L, S153N

Measured: binding

mouse Surf4, N-terminal HA-tagged construct (from UniProt Q64310 1-269)
binds: all assays above
